These are yes or no findings as the source states them, for the method shown. In cells and extracts the contact can be indirect. Some results given as binding are weak or reduced against the parent protein; the word gives no strength. Sequences can lack the tags named with a protein.

This assay concerns the target T1, Flag-UBE2F (UniProt Q969M7).
T1 sequence: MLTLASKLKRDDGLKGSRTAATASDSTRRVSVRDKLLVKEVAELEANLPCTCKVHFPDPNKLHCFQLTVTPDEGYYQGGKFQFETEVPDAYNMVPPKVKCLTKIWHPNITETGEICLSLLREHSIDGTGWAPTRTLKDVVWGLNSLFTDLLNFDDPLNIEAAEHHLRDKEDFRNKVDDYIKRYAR
Description: co-IP; Flag-UBE2F precipitated from transfected H1299 cell lysate on anti-Flag M2 affinity resin, 3 h at 4 °C, NP-40 buffer (50 mM Tris-HCl pH 7.4, 150 mM NaCl, 0.1% NP-40); cells treated with cisplatin (Cis) or carboplatin (Carbo) for 48 h; endogenous RBX1, RBX2 and NOXA detected by western blot. Background: A western blot detects proteins with antibodies after separation by electrophoresis.

B1: NOXA (protein, UniProt Q13794 1-54)
chain: MPGKKARKNAQPSPARAPAELEVECATQLRRFGDKLNFRQKLLNLISKLFCSGT
For B1, the binding result is listed as “binds”.

Values taken from publication PMC7665193.
